Results are given in words; binding and its absence hold for the method and conditions named. For part of these data: In cells and extracts the contact can be indirect. Some results given as binding are weak or reduced against the parent protein; the word gives no strength. For part of these data: Tags and fused reporters may be left off the sequences shown.

Assay [1] deals with T1, endothelial nitric oxide synthase (human (endogenous in HUVECs)), P29474.
T1 chain: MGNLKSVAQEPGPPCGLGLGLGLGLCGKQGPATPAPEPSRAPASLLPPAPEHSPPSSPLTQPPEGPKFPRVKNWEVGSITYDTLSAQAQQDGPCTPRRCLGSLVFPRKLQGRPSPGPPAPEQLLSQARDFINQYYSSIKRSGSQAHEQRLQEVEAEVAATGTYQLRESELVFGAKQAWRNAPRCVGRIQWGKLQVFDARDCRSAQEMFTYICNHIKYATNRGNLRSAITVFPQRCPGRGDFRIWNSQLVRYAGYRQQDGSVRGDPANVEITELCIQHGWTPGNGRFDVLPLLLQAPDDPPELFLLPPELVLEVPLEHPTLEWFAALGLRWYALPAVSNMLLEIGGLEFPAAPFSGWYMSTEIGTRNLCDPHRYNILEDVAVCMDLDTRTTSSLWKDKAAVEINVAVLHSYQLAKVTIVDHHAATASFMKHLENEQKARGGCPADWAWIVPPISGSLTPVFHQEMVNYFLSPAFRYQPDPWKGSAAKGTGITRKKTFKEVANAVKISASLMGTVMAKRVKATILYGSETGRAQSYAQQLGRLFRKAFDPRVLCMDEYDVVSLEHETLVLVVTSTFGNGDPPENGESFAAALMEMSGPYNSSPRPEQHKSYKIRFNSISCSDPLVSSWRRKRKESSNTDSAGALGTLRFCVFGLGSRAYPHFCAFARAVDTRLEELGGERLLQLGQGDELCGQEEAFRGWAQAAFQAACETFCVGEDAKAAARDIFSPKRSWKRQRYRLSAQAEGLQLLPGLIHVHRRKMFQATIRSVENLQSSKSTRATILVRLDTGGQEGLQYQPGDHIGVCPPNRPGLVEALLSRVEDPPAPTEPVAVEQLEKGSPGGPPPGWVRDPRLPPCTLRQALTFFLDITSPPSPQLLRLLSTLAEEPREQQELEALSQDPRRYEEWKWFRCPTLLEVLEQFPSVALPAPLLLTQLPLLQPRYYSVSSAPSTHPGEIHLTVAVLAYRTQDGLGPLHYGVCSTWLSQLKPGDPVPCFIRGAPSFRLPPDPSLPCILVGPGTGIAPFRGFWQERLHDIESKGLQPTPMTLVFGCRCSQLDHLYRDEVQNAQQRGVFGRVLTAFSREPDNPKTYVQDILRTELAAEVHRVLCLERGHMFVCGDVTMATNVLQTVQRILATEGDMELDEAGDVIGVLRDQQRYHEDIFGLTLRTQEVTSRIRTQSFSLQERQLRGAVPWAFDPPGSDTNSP
In words: low-temperature SDS-PAGE; total proteins in loading buffer without 2-mercaptoethanol, 37 °C for 5 min, 8% SDS-PAGE for 4 h at 40 mA with the tank in an ice bath, eNOS dimers and monomers detected by blot; dimer to monomers; cells with or without H2O2, Hemin, Ad-HO-1 or HO-1 siRNA. The note with it: remark: other sources report otherwise.

In assay [2] the target is T2, endothelial nitric oxide synthase (human (endogenous in HUVECs)) (UniProt P29474).
T2 sequence: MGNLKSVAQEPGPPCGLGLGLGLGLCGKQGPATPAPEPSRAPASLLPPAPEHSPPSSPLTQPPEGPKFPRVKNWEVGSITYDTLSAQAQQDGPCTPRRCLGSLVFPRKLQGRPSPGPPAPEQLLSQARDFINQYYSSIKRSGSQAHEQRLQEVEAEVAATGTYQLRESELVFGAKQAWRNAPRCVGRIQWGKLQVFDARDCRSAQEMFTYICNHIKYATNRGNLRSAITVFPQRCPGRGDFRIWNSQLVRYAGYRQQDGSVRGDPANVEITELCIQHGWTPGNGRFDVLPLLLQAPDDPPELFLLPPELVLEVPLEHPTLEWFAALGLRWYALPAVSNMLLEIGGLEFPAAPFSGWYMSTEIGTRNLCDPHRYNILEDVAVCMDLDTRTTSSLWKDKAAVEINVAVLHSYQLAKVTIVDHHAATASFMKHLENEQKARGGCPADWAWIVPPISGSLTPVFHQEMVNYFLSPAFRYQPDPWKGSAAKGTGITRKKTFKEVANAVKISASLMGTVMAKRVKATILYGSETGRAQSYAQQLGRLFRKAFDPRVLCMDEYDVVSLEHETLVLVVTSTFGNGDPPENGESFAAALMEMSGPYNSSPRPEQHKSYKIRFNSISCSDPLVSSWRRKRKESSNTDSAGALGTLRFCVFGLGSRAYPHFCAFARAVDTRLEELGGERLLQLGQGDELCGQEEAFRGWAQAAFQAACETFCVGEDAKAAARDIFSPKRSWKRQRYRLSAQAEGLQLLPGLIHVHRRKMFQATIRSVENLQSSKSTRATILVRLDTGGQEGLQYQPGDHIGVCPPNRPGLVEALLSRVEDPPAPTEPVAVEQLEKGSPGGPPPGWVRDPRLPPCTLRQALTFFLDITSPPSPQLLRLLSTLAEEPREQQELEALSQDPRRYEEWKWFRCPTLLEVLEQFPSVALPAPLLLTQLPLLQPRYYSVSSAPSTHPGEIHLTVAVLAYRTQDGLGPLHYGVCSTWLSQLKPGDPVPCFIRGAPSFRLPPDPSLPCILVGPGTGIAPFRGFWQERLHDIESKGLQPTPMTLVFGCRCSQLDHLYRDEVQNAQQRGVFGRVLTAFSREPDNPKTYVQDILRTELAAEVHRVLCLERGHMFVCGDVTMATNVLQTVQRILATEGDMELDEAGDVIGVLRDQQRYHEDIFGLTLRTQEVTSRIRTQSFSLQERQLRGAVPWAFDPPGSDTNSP
In words: co-IP; rabbit polyclonal anti-eNOS added to 300 ug HUVEC lysate overnight at 4 °C, protein A/G beads 4 h at 4 °C, washed 3 times with lysis buffer containing 150-500 mM NaCl, immunoblotting; cells with or without H2O2 (50 uM), Hemin or Ad-HO-1. For orientation: Immunoblotting shows a protein as a band on a membrane.

B1: endothelial nitric oxide synthase, P29474 1-1203 (enzyme)
chain: MGNLKSVAQEPGPPCGLGLGLGLGLCGKQGPATPAPEPSRAPASLLPPAPEHSPPSSPLTQPPEGPKFPRVKNWEVGSITYDTLSAQAQQDGPCTPRRCLGSLVFPRKLQGRPSPGPPAPEQLLSQARDFINQYYSSIKRSGSQAHEQRLQEVEAEVAATGTYQLRESELVFGAKQAWRNAPRCVGRIQWGKLQVFDARDCRSAQEMFTYICNHIKYATNRGNLRSAITVFPQRCPGRGDFRIWNSQLVRYAGYRQQDGSVRGDPANVEITELCIQHGWTPGNGRFDVLPLLLQAPDDPPELFLLPPELVLEVPLEHPTLEWFAALGLRWYALPAVSNMLLEIGGLEFPAAPFSGWYMSTEIGTRNLCDPHRYNILEDVAVCMDLDTRTTSSLWKDKAAVEINVAVLHSYQLAKVTIVDHHAATASFMKHLENEQKARGGCPADWAWIVPPISGSLTPVFHQEMVNYFLSPAFRYQPDPWKGSAAKGTGITRKKTFKEVANAVKISASLMGTVMAKRVKATILYGSETGRAQSYAQQLGRLFRKAFDPRVLCMDEYDVVSLEHETLVLVVTSTFGNGDPPENGESFAAALMEMSGPYNSSPRPEQHKSYKIRFNSISCSDPLVSSWRRKRKESSNTDSAGALGTLRFCVFGLGSRAYPHFCAFARAVDTRLEELGGERLLQLGQGDELCGQEEAFRGWAQAAFQAACETFCVGEDAKAAARDIFSPKRSWKRQRYRLSAQAEGLQLLPGLIHVHRRKMFQATIRSVENLQSSKSTRATILVRLDTGGQEGLQYQPGDHIGVCPPNRPGLVEALLSRVEDPPAPTEPVAVEQLEKGSPGGPPPGWVRDPRLPPCTLRQALTFFLDITSPPSPQLLRLLSTLAEEPREQQELEALSQDPRRYEEWKWFRCPTLLEVLEQFPSVALPAPLLLTQLPLLQPRYYSVSSAPSTHPGEIHLTVAVLAYRTQDGLGPLHYGVCSTWLSQLKPGDPVPCFIRGAPSFRLPPDPSLPCILVGPGTGIAPFRGFWQERLHDIESKGLQPTPMTLVFGCRCSQLDHLYRDEVQNAQQRGVFGRVLTAFSREPDNPKTYVQDILRTELAAEVHRVLCLERGHMFVCGDVTMATNVLQTVQRILATEGDMELDEAGDVIGVLRDQQRYHEDIFGLTLRTQEVTSRIRTQSFSLQERQLRGAVPWAFDPPGSDTNSP
On to B1, for which the binding result in assay [1] is “binds”.

B2: heme oxygenase-1 (enzyme, UniProt P09601 1-288)
chain: MERPQPDSMPQDLSEALKEATKEVHTQAENAEFMRNFQKGQVTRDGFKLVMASLYHIYVALEEEIERNKESPVFAPVYFPEELHRKAALEQDLAFWYGPRWQEVIPYTPAMQRYVKRLHEVGRTEPELLVAHAYTRYLGDLSGGQVLKKIAQKALDLPSSGEGLAFFTFPNIASATKFKQLYRSRMNSLEMTPAVRQRVIEEAKTAFLLNIQLFEELQELLTHDTKDQSPSRAPGLRQRASNKVQDSAPVETPRGKPPLNTRSQAPLLRWVLTLSFLVATVAVGLYAM
With B2, the binding result in assay [2] is “binds”.

B3: GFP-HO-1 (HO-1 from the recombinant adenovirus encoding human HO-1 with a GFP) (enzyme, UniProt P09601 1-288)
chain: MERPQPDSMPQDLSEALKEATKEVHTQAENAEFMRNFQKGQVTRDGFKLVMASLYHIYVALEEEIERNKESPVFAPVYFPEELHRKAALEQDLAFWYGPRWQEVIPYTPAMQRYVKRLHEVGRTEPELLVAHAYTRYLGDLSGGQVLKKIAQKALDLPSSGEGLAFFTFPNIASATKFKQLYRSRMNSLEMTPAVRQRVIEEAKTAFLLNIQLFEELQELLTHDTKDQSPSRAPGLRQRASNKVQDSAPVETPRGKPPLNTRSQAPLLRWVLTLSFLVATVAVGLYAM
For the molecule B3, in assay [2], the binding result is “binds”.

These data come from article PMC6075439.
